The list shows a part of the results.
Legend:
Experiment in all cases: log2 fold change, soluble protein after heating vs DMSO (PISA); higher = thermal stabilisation; K562 cells, 10 uM, 30 min; active = over 0.2 and 3.5 SD of the protein, either way, in both replicates (recomputed)
[1] = compound: NC(=O)Nc1cc(-c2cccc(F)c2)sc1C(=O)N[C@H]1CCCNC1
How it was run: (§1)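 K562 cells at 2×10^6 cells/mL were exposed to 10 μM compound for 30 min, then aliquots were heated for 3 min across 48°C-58°C, pooled, and extracted in PBS containing 0.5% NP-40 at 4°C. The supernatant after 21,000xg for 90 min was taken as soluble protein and measured by TMTpro 16plex LC-MS/MS with channel sums equalised. Thermal stability is reported relative to control samples, with values from duplicates. Fold changes are given on a log2 scale.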

Amino acid sequences for entries named in this document (tags omitted). A change or cut given only in a name is not applied to a line headed by its entry.
UniProt Q9NX14, whole entry, looked up: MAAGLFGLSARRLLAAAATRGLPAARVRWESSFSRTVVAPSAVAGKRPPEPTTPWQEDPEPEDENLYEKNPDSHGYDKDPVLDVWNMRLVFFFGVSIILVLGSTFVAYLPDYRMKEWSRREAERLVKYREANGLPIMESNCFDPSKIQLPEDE
UniProt Q8N183: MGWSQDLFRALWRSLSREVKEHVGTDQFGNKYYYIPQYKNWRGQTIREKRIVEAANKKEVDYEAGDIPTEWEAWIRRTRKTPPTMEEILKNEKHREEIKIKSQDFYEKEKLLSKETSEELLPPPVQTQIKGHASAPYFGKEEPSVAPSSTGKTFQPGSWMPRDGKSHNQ
UniProt O95298, whole entry, looked up: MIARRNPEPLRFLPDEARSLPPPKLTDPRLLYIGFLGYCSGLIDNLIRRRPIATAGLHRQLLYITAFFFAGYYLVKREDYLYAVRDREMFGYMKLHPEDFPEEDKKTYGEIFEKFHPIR
UniProt Q69YL0: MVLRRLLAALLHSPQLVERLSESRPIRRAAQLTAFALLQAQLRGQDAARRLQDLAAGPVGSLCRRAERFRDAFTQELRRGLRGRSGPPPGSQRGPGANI
UniProt P42695: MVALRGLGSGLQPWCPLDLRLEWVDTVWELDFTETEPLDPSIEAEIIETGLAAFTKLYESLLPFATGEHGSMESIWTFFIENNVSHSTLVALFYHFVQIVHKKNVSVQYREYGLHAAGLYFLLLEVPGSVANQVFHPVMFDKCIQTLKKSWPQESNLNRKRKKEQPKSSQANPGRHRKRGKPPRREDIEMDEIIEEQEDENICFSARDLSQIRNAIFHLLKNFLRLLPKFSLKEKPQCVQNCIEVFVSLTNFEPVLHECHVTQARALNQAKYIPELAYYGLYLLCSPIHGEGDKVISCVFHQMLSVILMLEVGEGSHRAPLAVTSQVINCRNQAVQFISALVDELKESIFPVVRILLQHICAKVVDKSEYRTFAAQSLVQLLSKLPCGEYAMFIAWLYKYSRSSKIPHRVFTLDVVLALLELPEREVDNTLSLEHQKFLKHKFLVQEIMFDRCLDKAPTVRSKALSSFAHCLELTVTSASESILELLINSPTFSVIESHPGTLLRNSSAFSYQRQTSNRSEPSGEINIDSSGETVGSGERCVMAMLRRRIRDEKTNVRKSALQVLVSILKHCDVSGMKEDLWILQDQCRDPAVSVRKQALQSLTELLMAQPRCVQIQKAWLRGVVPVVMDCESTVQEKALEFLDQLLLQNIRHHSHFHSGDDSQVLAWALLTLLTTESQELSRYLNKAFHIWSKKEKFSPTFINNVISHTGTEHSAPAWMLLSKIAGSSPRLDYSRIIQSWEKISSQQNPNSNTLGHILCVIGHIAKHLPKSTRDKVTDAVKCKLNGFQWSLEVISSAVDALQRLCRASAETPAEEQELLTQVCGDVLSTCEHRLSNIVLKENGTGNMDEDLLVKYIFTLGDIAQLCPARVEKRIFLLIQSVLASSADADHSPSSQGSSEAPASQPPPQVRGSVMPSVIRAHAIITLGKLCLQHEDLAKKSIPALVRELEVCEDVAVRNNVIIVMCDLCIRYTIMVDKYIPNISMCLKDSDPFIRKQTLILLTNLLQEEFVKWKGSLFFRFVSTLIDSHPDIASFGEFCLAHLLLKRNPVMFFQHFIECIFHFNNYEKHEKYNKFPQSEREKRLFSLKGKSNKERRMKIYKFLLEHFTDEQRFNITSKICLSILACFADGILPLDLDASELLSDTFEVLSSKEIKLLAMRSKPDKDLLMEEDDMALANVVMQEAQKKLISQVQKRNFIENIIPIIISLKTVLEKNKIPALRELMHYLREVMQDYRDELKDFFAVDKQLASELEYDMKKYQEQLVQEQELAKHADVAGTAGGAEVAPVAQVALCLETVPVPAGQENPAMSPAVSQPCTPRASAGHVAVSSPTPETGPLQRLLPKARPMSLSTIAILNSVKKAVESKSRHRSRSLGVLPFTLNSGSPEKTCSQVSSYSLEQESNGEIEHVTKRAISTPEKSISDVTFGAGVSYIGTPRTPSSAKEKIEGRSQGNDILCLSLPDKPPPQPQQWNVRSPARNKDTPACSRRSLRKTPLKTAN
UniProt P19404, whole entry, looked up: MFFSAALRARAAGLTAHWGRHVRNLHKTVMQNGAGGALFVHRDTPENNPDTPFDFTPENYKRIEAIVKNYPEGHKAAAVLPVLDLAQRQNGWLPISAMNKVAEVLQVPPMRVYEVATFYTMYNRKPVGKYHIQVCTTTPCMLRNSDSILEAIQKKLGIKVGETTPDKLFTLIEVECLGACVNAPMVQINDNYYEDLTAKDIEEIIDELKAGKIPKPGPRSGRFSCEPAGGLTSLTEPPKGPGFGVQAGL

[2] = compound: NC(=O)c1cnc(N[C@@H]2CCCC[C@@H]2N)nc1Nc1cccc(-n2nccn2)c1
How it was run: as §1

[3] = compound: NC1(c2ccc(-c3nc4ccn5c(=O)[nH]nc5c4cc3-c3ccccc3)cc2)CCC1
How it was run: as §1

[4] = compound: NCC(=O)Nc1ccc(-n2nc(C(F)(F)F)cc2-c2ccc3c(ccc4ccccc43)c2)cc1
How it was run: as §1

entinostat = compound: Nc1ccccc1NC(=O)c1ccc(CNC(=O)OCc2cccnc2)cc1 [entinostat]
How it was run: as §1

vorinostat = compound: O=C(CCCCCCC(=O)Nc1ccccc1)NO [vorinostat]
How it was run: as §1

citarinostat = compound: O=C(CCCCCCNC(=O)c1cnc(N(c2ccccc2)c2ccccc2Cl)nc1)NO [citarinostat]
How it was run: as §1

silmitasertib = compound: O=C(O)c1ccc2c(c1)nc(Nc1cccc(Cl)c1)c1ccncc12 [silmitasertib]
How it was run: as §1

[5] = compound: O=C1NC(=O)C(c2cnc3ccccn23)=C1c1cn2c3c(cc(F)cc13)CN(C(=O)N1CCCCC1)CC2
How it was run: as §1

[6] = compound: c1cc(OCCN2CCCCC2)cc(-c2n[nH]c3ccc(-c4nnc[nH]4)cc23)c1
How it was run: as §1

entospletinib = compound: c1cn2cc(-c3ccc4cn[nH]c4c3)nc(Nc3ccc(N4CCOCC4)cc3)c2n1 [entospletinib]
How it was run: as §1

Measured: log2 fold change

NCOR2 (UniProt C9J0Q5)
inactive: [1] -0.005 | [2] 0.066 | [3] -0.017 | [4] -0.049 | entinostat -0.056 | vorinostat -0.08 | citarinostat -0.071 | silmitasertib 0.037 | [5] -0.041 | [6] -0.016 | entospletinib -0.013

NDUFB11 isoform 2 (UniProt Q9NX14)
inactive: [1] 0.017 | [2] -0.024 | [3] -0.002 | [4] -0.005 | entinostat 0.059 | vorinostat 0.007 | citarinostat 0.01 | silmitasertib -0.053 | [5] -0.029 | [6] 0 | entospletinib -0.006

NDUFAF2 (UniProt Q8N183)
inactive: [1] -0.039 | [2] -0.021 | [3] -0.01 | [4] -0.029 | entinostat -0.008 | vorinostat 0.032 | citarinostat 0.042 | silmitasertib -0.018 | [5] -0.045 | [6] -0.025 | entospletinib 0.015

NDUFV1 (UniProt E9PJL9)
inactive: [1] -0.032 | [2] -0.23 | [3] -0.07 | [4] -0.048 | entinostat -0.123 | silmitasertib 0.05

NDUFC2 (UniProt O95298)
inactive: [1] -0.039 | [2] -0.128 | [3] -0.009 | [4] -0.005 | entinostat 0.042 | vorinostat -0.126 | citarinostat 0.094 | silmitasertib 0.028 | [5] -0.039 | [6] 0.002 | entospletinib -0.073

NCBP2AS2 (UniProt Q69YL0)
inactive: [1] -0.21 | [2] -0.161 | [3] -0.312 | [4] -0.157 | entinostat -0.004 | vorinostat 0.024 | citarinostat 0 | silmitasertib 0.024 | [6] -0.046

NCAPD3 (UniProt P42695)
inactive: [1] -0.035 | [2] 0.039 | [3] -0.06 | [4] 0.045 | entinostat 0.034 | vorinostat 0.048 | citarinostat 0.09 | silmitasertib 0.14 | [5] 0.071 | [6] -0.073 | entospletinib -0.106

NDUFV2 (UniProt P19404)
inactive: [1] 0.015 | [2] 0.052 | [3] -0.028 | [4] -0.015 | entinostat 0.001 | vorinostat -0.011 | citarinostat 0.01 | silmitasertib 0.025 | [5] -0.079 | [6] -0.01 | entospletinib -0.034

From the supplement of paper PMC10849652
